{"source": "PubChem BioAssay AID652259 – Drosophila RNAi Screening Center, 2013", "purpose": "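Knock-downs that push a Wingless-driven reporter up or down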 (primary screen)", "system": "Drosophila clone 8 imaginal disc epithelial cells", "reagent": "long dsRNA against Drosophila genes", "treatment": "pathway stimulated by co-transfected Wingless expression plasmid", "measurement": "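Dual luciferase reads per well after Wingless plasmid stimulation: reporter firefly light and Renilla control light; activity is firefly divided by Renilla, a ratio not deposited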", "scale": "firefly reporter light: higher = more Wg reporter light, before normalisation; Renilla control light: higher = more transfected or surviving cells", "call rule": "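Strong candidates differ from their plate mean by at least two out of four per-plate statistical tests; weak candidates meet just one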", "meaning of the calls": "active = candidate regulator (raises or lowers reporter); inactive = not a candidate", "note": "The deposit covers about 22,000 reagents; this is an unselected part of those with a known target gene and a result. In the full data, 233 (1.1%) were called active. 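Light values are raw, unnormalised plate reads; the ratio scores behind the reporter calls were not deposited.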 A number with no mark means an inactive call. No sequences are given here. The record does not give: the amount of reagent, the time to read-out, the dose of the treatment."}
{"gene": "ImpE1", "amplicon": "DRSC11195", "firefly reporter light, replicate 1": 2153, "firefly reporter light, replicate 2": 8791, "Renilla control light, replicate 1": 1532, "Renilla control light, replicate 2": 3972}
{"gene": "ImpE1", "amplicon": "DRSC11196", "firefly reporter light, replicate 1": 1494, "firefly reporter light, replicate 2": 7884, "Renilla control light, replicate 1": 1013, "Renilla control light, replicate 2": 2818}
{"gene": "Rap2l", "amplicon": "DRSC04646", "firefly reporter light, replicate 1": 3088, "firefly reporter light, replicate 2": 5757, "Renilla control light, replicate 1": 432, "Renilla control light, replicate 2": 1936}
{"gene": "scrib", "amplicon": "DRSC13774", "firefly reporter light, replicate 1": 4083, "Renilla control light, replicate 1": 1808}
{"gene": "scrib", "amplicon": "DRSC13775", "firefly reporter light, replicate 1": 5082, "Renilla control light, replicate 1": 1298}
{"gene": "scrib", "amplicon": "DRSC15809", "firefly reporter light, replicate 1": 2611, "firefly reporter light, replicate 2": 3285, "Renilla control light, replicate 1": 1130, "Renilla control light, replicate 2": 1531}
{"gene": "scrib", "amplicon": "DRSC17051", "firefly reporter light, replicate 1": 4722, "Renilla control light, replicate 1": 2283}
{"gene": "dac", "amplicon": "DRSC03518", "firefly reporter light, replicate 1": 3523, "firefly reporter light, replicate 2": 4854, "Renilla control light, replicate 1": 1265, "Renilla control light, replicate 2": 2659}
{"gene": "Ehbp1", "amplicon": "DRSC06561", "firefly reporter light, replicate 1": 14967, "Renilla control light, replicate 1": 4307}
{"gene": "CG11980", "amplicon": "DRSC14456", "firefly reporter light, replicate 1": 5003, "Renilla control light, replicate 1": 2048}
{"gene": "CHMP2B", "amplicon": "DRSC10436", "firefly reporter light, replicate 1": 4677, "Renilla control light, replicate 1": 1829}
{"gene": "CG13972", "amplicon": "DRSC14715", "firefly reporter light, replicate 1": 7216, "Renilla control light, replicate 1": 3029}
{"gene": "CG8112", "amplicon": "DRSC16377", "firefly reporter light, replicate 1": 12284, "Renilla control light, replicate 1": 3200}
{"gene": "CAH2", "amplicon": "DRSC10746", "firefly reporter light, replicate 1": 8112, "Renilla control light, replicate 1": 2848}
{"gene": "CanA-14F", "amplicon": "DRSC20211", "firefly reporter light, replicate 1": 17824, "Renilla control light, replicate 1": 3221}
{"gene": "Ir92a", "amplicon": "DRSC15111", "firefly reporter light, replicate 1": 18533, "Renilla control light, replicate 1": 3449}
{"gene": "Usp39", "amplicon": "DRSC20032", "firefly reporter light, replicate 1": 3709, "firefly reporter light, replicate 2": 10556, "Renilla control light, replicate 1": 928, "Renilla control light, replicate 2": 2553}

Only “Renilla control light, replicate 1”, for 2 of the entries above:
CG8112 [DRSC16377]: 3200
CAH2 [DRSC10746]: 2848
